Laboratory results reported in PubChem BioAssay AID2685 (National Center for Advancing Translational Sciences (NCATS), 2010).
The other results are listed elsewhere or left out. These are further read-outs of the screen, such as a control signal, another cell line or another target. No call is given for them. Most of these compounds were active or inconclusive in the main read-out, so they are no random draw. Words in brackets tell the shape of the fitted curve; partial curves, single points and poor fits give uncertain potencies.

Assay: qHTS Assay for Lipid Storage Modulators in Drosophila S3 Cells;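 for cell number change: cells counted by Cell Tracker Red CMTPX staining in the red channel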
Conditions: BODIPY lipid droplet fluorescence, 18-24 h; for cell number change: measured here: cell count max response, cells fed with added oleic acid
Method in brief: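 Drosophila S3 cells loaded with oleic acid (400 uM, as added) and compounds at several concentrations; lipid droplets imaged by 488-nm laser-scanning cytometry, 500–530 nm intensity and object ratio to cell channel. Percent activity normalized to 20 uM Triacsin C.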

[1] = measured here: lipid fluorescence (Fed channel) AC50, cells fed with added oleic acid
[2] = measured here: cell number channel AC50, cells fed with added oleic acid

Compound	cell number change [%]	AC50 [1]	AC50 [2]
COc1cccc(C2CC(=O)Nc3c2c(=O)n(C)c(=O)n3C)c1OC (stereo not given)	-15.7	3.26 µM [falling, single point]	
CN(C)C(=O)C[n+]1cccc(/C=N/O)c1	-0.803		0.82 µM [rising, single point]
CCC(C)c1ccccc1OCCCNC1CCCC1 (stereo not given)	-1.75	29.1 µM [rising, single point]	
O=C(CCS(=O)(=O)c1ccc2c(c1)NC(=O)CS2)NCc1cccs1	11.9	0.731 µM [rising, single point]	
CC(Sc1nnc(-c2ccccc2F)o1)C(=O)Nc1ccc(N2CCOCC2)cc1 (stereo not given)			1.64 µM [rising, partial curve]
Cc1snc(SCC(=O)N/N=C(\N)COc2cccc(C(F)(F)F)c2)c1C#N	143	20.6 µM [rising, partial curve]	29.1 µM [rising, single point]
COc1ccc(S(=O)(=O)N(C)c2ccc(C(=O)NCCC(C)C)cc2)cc1	-3.33		
CCCCC(CC(O)COCCC)c1n[nH]c(=S)n1-c1ccccc1 (stereo not given)	22.3	10.3 µM [rising, partial curve, poor fit]	
CC(C)C(NC(=O)OCc1ccccc1)C(=O)OCC(=O)N1C(C)CCCC1C (stereo not given)	45.1	0.58 µM [rising, full curve, poor fit]	1.16 µM [rising, full curve]
O=[N+]([O-])c1ccc(N/N=C/c2ccc[nH]2)cc1	35.3	9.2 µM [falling, partial curve]	20.6 µM [rising, single point]
CSc1ccc(/C=C(\C#N)C(=O)NC2CCCCC2C)cc1 (stereo not given)	6.04		
O=C1CCCCN1CC(=O)N1CCCC(Nc2ccc(F)c(F)c2)C1 (stereo not given)	-77.5	23.1 µM [falling, single point]	13 µM [falling, partial curve]
O=C(CSc1nccn1-c1ccccc1)NO	-30.2		
CC(=O)NCc1ccc(-c2csc(-c3cccs3)n2)cc1	18.1	0.103 µM [rising, partial curve, poor fit]	
CC(C)n1c(-c2ccc(N(C)C)cc2)nc2ccccc21	52.4	2.59 µM [rising, full curve]	2.06 µM [rising, full curve]
CCCCN(C(=O)COC(=O)COc1c(C)cc(C)cc1C)c1c(N)n(CCC)c(=O)[nH]c1=O		4.61 µM [rising, full curve]	4.11 µM [falling, single point]
CCOc1ccc(/C=C2\NC(=S)NC2=O)cc1	-32.4	18.4 µM [falling, single point]	18.4 µM [falling, single point]
Cc1cc(Nc2cccc(Cl)c2)c2ccccc2n1	6.22	18.4 µM [falling, single point]	
CCCNC(=O)COc1ncnc2sccc12	8.67		6.51 µM [rising, single point]

Compound	cell number change [%]	AC50 [1]	AC50 [2]
CN1CCN(C(=O)/C(=C/c2ccc([N+](=O)[O-])cc2)NC(=O)c2ccccc2)CC1	1.28		
CN(CC(=O)Nc1cccc(F)c1)C(=O)c1ccncc1	-7.69		
CN(C)c1ccc(C(CNC(=O)c2ccc(-c3ccccc3)cc2)N2CCOCC2)cc1 (stereo not given)	63.6		14.6 µM [rising, partial curve]
CCOC(=O)c1ccccc1NS(=O)(=O)c1cnn(CC)c1C	-18	4.11 µM [rising, full curve]	
CC1(c2ccc3c(c2)OCCO3)NC(=O)N(CC(=O)Nc2ccccc2SCC#N)C1=O (stereo not given)	6.34	25.9 µM [rising, single point]	
Cc1nn(CC(=O)c2ccc(Br)s2)c(C)c1[N+](=O)[O-]	-0.425	18.4 µM [rising, partial curve, poor fit]	
Cc1cc(Br)ccc1OCCCCN1CCC(C)CC1	-2.35		
CCC(c1nnnn1CCOC)N1CCN(c2cccc(C(F)(F)F)c2)CC1 (stereo not given)	-3.37	29.1 µM [rising, single point]	
O=C(Cc1ccc(S(=O)(=O)N2CCCCC2)cc1)NCc1ccc(Cl)cc1	-15.8	29.1 µM [rising, single point]	
COc1ccc(CCC(=O)Nc2cc(Cl)ccc2N2CCN(C)CC2)cc1	-29.6	16.4 µM [falling, single point]	
Cc1ccc(-n2c(C)cc(C(=O)CSc3nncs3)c2C)cc1	-31	1.3 µM [falling, full curve]	3.26 µM [falling, full curve, poor fit]
O=C(COc1ccc(C(=O)Nc2ccc(Cl)cc2)cc1)NCc1ccccc1	6.66	1.46 µM [rising, partial curve, poor fit]	
Cc1c(Cl)c([N+](=O)[O-])nn1CCCC(=O)N1CCN(c2ccccc2)CC1	-15.4	13 µM [falling, partial curve]	
CCc1ccc(C(=O)Nc2nc(C)cs2)s1	-16.9		
C=CCc1cccc(CNc2nc3ccccc3n2CCC)c1O	-38.8	29.1 µM [falling, single point]	25.9 µM [falling, partial curve]
COC(=O)c1cc(C(=O)NNC(=O)c2ccc3c(c2)OCO3)cc([N+](=O)[O-])c1	6.96	2.91 µM [rising, single point]	
COc1ccc(CN(CCCN2CCOCC2)S(=O)(=O)N(C)C)cc1OC	-0.176	0.58 µM [falling, full curve]	
CCCCN(CCCC)CC(O)Cn1c2ccccc2c(=O)c2ccccc21 (stereo not given)	19.9		4.61 µM [rising, full curve, poor fit]
O=c1[nH][nH]c(-c2ccccc2)c1C=Nc1ccc(OC(F)(F)F)cc1		1.3 µM [falling, partial curve]	1.84 µM [falling, partial curve]

Compound	cell number change [%]	AC50 [1]	AC50 [2]
Nc1ncnc(Sc2ncccn2)c1[N+](=O)[O-]	-74.7	31.6 µM [falling, partial curve, poor fit]	31.6 µM [falling, partial curve]
CCOC(=O)C1=C(C)N=c2s/c(=C/c3ccc(OCC(=O)O)cc3)c(=O)n2C1c1cc(OC)c(OC)c(OC)c1 (stereo not given)	-5.28	18.4 µM [falling, single point]	
COc1cc(C(=S)N2CCCCC2)ccc1OCC(=O)Nc1ccc(F)cc1	-57.9	6.51 µM [rising, single point]	8.2 µM [falling, partial curve, poor fit]
CCOC(=O)CC1=NN(c2ccccc2)C(=O)C1	10.2	6.51 µM [rising, single point]	3.26 µM [rising, single point]
N#Cc1ccc(NC(=S)Nc2ccccc2)cc1	20.7	11.6 µM [rising, partial curve, poor fit]	
Cc1ccc(-n2ncc3c(=O)n(CC(=O)N4CCCCCC4)cnc32)cc1	22.3	14.6 µM [rising, single point]	
CC(=O)c1ccc(N2C(=NC(=O)COc3ccccc3)SC3CS(=O)(=O)CC32)cc1 (stereo not given)	-13	23.1 µM [rising, single point]	
O=C1CCc2cc(S(=O)(=O)Nc3ccc(C(F)(F)F)cc3)cc3c2N1CC3	36.7	7.31 µM [falling, single point]	23.1 µM [rising, single point]
NC(CC(=O)NC(c1ccccc1)(c1ccccc1)c1ccccc1)C(=O)O (stereo not given)	-80.3	25.9 µM [falling, single point]	29.1 µM [falling, single point]
Cc1ccccc1NC(=O)c1cccc2nccnc12	-25.4	13 µM [falling, partial curve, poor fit]	
O=C(CCCn1c(SCC(=O)NC2CCCCC2)nc2ccccc2c1=O)NCC1CCCO1 (stereo not given)	14.8	1.03 µM [rising, partial curve]	
COCCn1c(N)c(C(=O)OCc2ccccc2)c2nc3ccccc3nc21	21.1	0.146 µM [rising, full curve]	0.0092 µM [rising, full curve, poor fit]
C[N+]1(CC(=O)OCCCc2ccccc2)CCCC1	-18.5	1.3 µM [falling, full curve]	
CCOC(=O)C1=C(C)OC(N)=C(C#N)C1c1c(C)nn(-c2ccccc2)c1Cl (stereo not given)	95.5	1.16 µM [rising, full curve]	2.06 µM [rising, full curve]
Cn1c(CCNC(=O)c2ccco2)nc2cc(NS(=O)(=O)c3ccc(Cl)cc3)ccc21	-0.141	2.91 µM [rising, partial curve]	3.66 µM [rising, single point]
O=C(OCc1ccc(Cl)c(Cl)c1)c1ccccn1	-2.21	9.2 µM [rising, single point]	
CCOc1cc(CNc2cccc3ccccc23)cc(Br)c1OCC(=O)NC(C)(C)C			0.0651 µM [rising, full curve, poor fit]
Cc1cc(Cl)c(S(=O)(=O)N2CCCCCC2)cc1OCC(=O)NC1CCCCC1		6.51 µM [rising, single point]	
CN(C(=O)COc1ccc(Br)cc1Cl)C1CCCCC1	-7.69	1.64 µM [rising, partial curve, poor fit]	

2 compounds from above with just AC50 [2] and cell number change [%]:
Compound | AC50 [2] | cell number change [%]
CCOC(=O)C1=C(C)N=c2s/c(=C/c3ccc(OCC(=O)O)cc3)c(=O)n2C1c1cc(OC)c(OC)c(OC)c1 (stereo not given) |  | -5.28
O=C(CCCn1c(SCC(=O)NC2CCCCC2)nc2ccccc2c1=O)NCC1CCCO1 (stereo not given) |  | 14.8

Looked up by compound from above (two):
Compound	cell number change [%]	AC50 [1]	AC50 [2]
Cn1c(CCNC(=O)c2ccco2)nc2cc(NS(=O)(=O)c3ccc(Cl)cc3)ccc21	-0.141	2.91 µM [rising, partial curve]	3.66 µM [rising, single point]
Cc1cc(Cl)c(S(=O)(=O)N2CCCCCC2)cc1OCC(=O)NC1CCCCC1		6.51 µM [rising, single point]	
